According to PubChem BioAssay AID2685 (National Center for Advancing Translational Sciences (NCATS), 2010):
About 2,100 (0.66%) of roughly 320,000 compounds were called active. The inconclusive results got no clear call from the source; some entries with a clear call stand among them for comparison. Calls follow the shape of the dose curve; as a rule, active = well fitted inhibition curve with a large enough effect in the signal ratio, with a control signal flat (not every such curve was filed as active); inconclusive = small, poorly fitted or top-dose-only effect, or effect the other way, or a change in a side signal; inactive = flat fitted curve, though single readings scatter; the % refers to the signal ratio. Where the call is inconclusive, the potency comes from a doubtful curve fit.

Assay: qHTS Assay for Lipid Storage Modulators in Drosophila S3 Cells
Details: BODIPY lipid droplet fluorescence, 18-24 h, cells fed with added oleic acid; lipid storage change, negative = inhibition: at 46.1 µM (top of the series) unless noted
Procedure, shortened: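 Drosophila S3 cells got compounds at several concentrations plus oleic acid (400 uM solution). Laser-scanning cytometry with 488 nm excitation read lipid droplets at 500-530 nm and cells at 575-640 nm. Percent activity was relative to 20 uM Triacsin C.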
% is scaled to controls: 0 for no effect and ±100 for the full control effect; potency is read from the fitted curve at half-maximal effect.

Compound | lipid storage change, negative = inhibition | Potency
COC(=O)[C@@]1(Cc2ccc(OC)cc2)[C@H]2c3cc(C(=O)N(C)C)n(C[C@H](O)CO)c3C[C@H]2CN1C(=O)c1ccccc1 | inconclusive: -0.0413% | 
CC(=O)c1sccc1NC(=O)CC(C)(C)CC(=O)O | inconclusive: 7.13% | 
Cc1cccc(-n2ncc(C#N)c2-n2cccc2)c1 | inconclusive: 7.48% | 
Cc1ccc(N2CC(C(=O)Nc3cc(C)on3)CC2=O)c(C)c1 (stereo unspecified) | inconclusive: 47.6% | 
Cc1c(C(=O)N(Cc2ccccc2Cl)C2CCS(=O)(=O)C2)oc2ccccc12 (stereo unspecified) | inconclusive: 15.8% | 
COc1ccc(Cl)cc1NC(=O)NC(C)c1ccncc1 (stereo unspecified) |  | inconclusive: 8.2 µM [activator, partial curve, poor fit]
Cc1cc(SCC(=O)Nc2cccc(S(N)(=O)=O)c2)c(C)cc1Br | inactive | 
COc1cccc(-c2nnc(SCC(=O)Nc3ccc(OC)c(OC)c3)n2N)c1 | inconclusive: 16.5% | 
COCC1CCN(C(=O)c2cc(COc3ccccc3SC)on2)C1 (stereo unspecified) | inconclusive: -50.8% | 
CCN(Cc1cccs1)C(=O)CN1C(=O)NC2(CCCc3ccccc32)C1=O (stereo unspecified) |  | inconclusive: 20.6 µM [falling, single point]
Cc1ccc2[nH]c3c(=O)n(CC(=O)N4CCN(C)CC4)ncc3c2c1 |  | inconclusive: 1.3 µM [activator, partial curve]
COc1ccc2c(c1)CCCC21NC(=O)N(CC(=O)c2cc(F)ccc2F)C1=O (stereo unspecified) | inconclusive: 16.7% | 
Cc1noc(/C=C/c2ccco2)c1S(=O)(=O)N1CCC(C(=O)N2CCc3ccccc32)CC1 | inconclusive: -7.32% | 
COC(=O)c1cc(-c2ccc(Br)cc2)c2c(=O)n(C)c(=O)n(C)c2n1 |  | active: 20.6 µM
O=C(CN1CCN(C(=O)c2cccc(S(=O)(=O)N3CCCC3)c2)CC1)Nc1ccc(F)cc1 |  | inconclusive: 0.366 µM [activator, single point]
COc1ccc(C(=O)COC(=O)Cn2cnc3c2c(=O)n(C)c(=O)n3C)c(OC)c1 |  | inconclusive: 29.1 µM [falling, single point]
COC(=O)Cc1cc(=O)[nH]c(/N=C(\N)Nc2ccccc2)n1 |  | inconclusive: 4.11 µM [falling, partial curve, poor fit]
O=[N+]([O-])c1ccc(N2CCN(c3ccccc3)CC2)cc1 | inconclusive: 236% | 
CCOC(=O)Cn1c(=O)oc2cc(S(=O)(=O)NCc3ccccn3)ccc21 | inconclusive: -9.32% | 
Cc1cc(C)nc(Nc2n[nH]c(COc3ccccc3)n2)n1 | inconclusive: 15.3% | 
CCc1nnc(NC(=O)c2ccc(COc3ccccc3Cl)o2)s1 | inconclusive: -10.5% | 
Cc1cccc(N(C)C(=O)c2cc(S(=O)(=O)N3CCCC3)cn2C)c1 | inconclusive: 15.5% | 
CC1(C)Cc2c(cnn2-c2ccc(F)cc2)C(NC(=O)CCc2ccncc2)C1 (stereo unspecified) | inconclusive: 25.3% | 
COc1cc(OC)cc(-n2nnnc2SCC(=O)N2CCCC2)c1 | inconclusive: -24.5% | 
CCOc1ccc(N2C(=O)Cc3ccccc3C2=O)cc1 |  | active: 29.1 µM
CCCCOc1ccc(C(C)(O)CCN2CCOCC2)cc1 (stereo unspecified) | inconclusive: -34.4% | 

Of the compounds above, two contain bromine:
Compound | lipid storage change, negative = inhibition | Potency
Cc1cc(SCC(=O)Nc2cccc(S(N)(=O)=O)c2)c(C)cc1Br | inactive | 
COC(=O)c1cc(-c2ccc(Br)cc2)c2c(=O)n(C)c(=O)n(C)c2n1 |  | active: 20.6 µM

Following part

Compound | lipid storage change, negative = inhibition | Potency
CC(=O)NNc1cccc(Cl)n1 |  | inconclusive: 5.8 µM [rising, full curve]
CCOC(=O)c1cn(Cc2cccc(C)c2)nn1 | inconclusive: 17.4% | 
CN=C1SC(CC(=O)NCCc2ccc(OC)c(OC)c2)C(=O)N1C (stereo unspecified) | inconclusive: -1.35% | 
O=C(CNC(=O)COc1ccccc1)NCc1ccccc1F | inactive | 
Cc1ccc(-c2nc(C3CCCN(S(=O)(=O)c4ccc(C(C)(C)C)cc4)C3)no2)cc1 (stereo unspecified) |  | inconclusive: 0.0052 µM [falling, full curve, poor fit]
CC(=O)OCCCCCCCCCCC[N+]1(C)CCCCC1 | inconclusive: -13.2% | 
O=C(CSc1nc2ncc(Cl)cc2[nH]1)Nc1ccccc1-c1ccccc1 | inconclusive: -22.6% | 
CCN(C(=O)COC(=O)/C=C/c1ccccc1[N+](=O)[O-])C1CCS(=O)(=O)C1 (stereo unspecified) | inconclusive: -3.74% | 
CC(=O)Nc1ccc(S(=O)(=O)N(C)CC(=O)NC2=NCCS2)cc1 |  | inconclusive: 4.61 µM [falling, partial curve]
O=C(CSc1nccn1-c1ccc(Cl)cc1)Nc1ccc2c(c1)OCO2 | inconclusive: 3.97% | 
CCOc1ccc(Nc2nc(N)c3ccccc3n2)cc1 | inconclusive: 6.57% | 
CCNc1nc(N)nc(-c2cc(Cl)ccc2OC)n1 |  | active: 3.66 µM
O=c1c(Cl)c(Cl)cnn1Cc1ccc(F)cc1 |  | inconclusive: 0.731 µM [falling, single point]
O=C(CCC(=O)N1CCOc2ccccc21)NC1CCCCCC1 | inconclusive: 23.3% | 
CSc1cccc(NC(=S)N(CCN(C)C)C(C)c2ccncc2)c1 (stereo unspecified) | inconclusive: -7.54% | 
CC1=CCP(=O)(c2ccccc2)C1 (stereo unspecified) | inconclusive: -4.95% | 
CC(C)NCC(O)Cn1c2c(c3ccccc31)CCc1c-2cnn1-c1ccccc1 (stereo unspecified) | inconclusive: -23% | 
CCOC(=O)C(Sc1ncn[nH]1)c1ccccc1 (stereo unspecified) |  | inconclusive: 5.17 µM [falling, full curve, poor fit]
O=C1OCCN1C(=O)[C@H]1[C@H](c2ccc(F)cc2)C(c2ccc(F)cc2)=NN1c1ccc(Br)cc1 | inconclusive: 20.5% | 
O=C(CC1CCCCC1)Nc1ncn[nH]1 |  | inconclusive: 3.26 µM [falling, single point]
COC(=O)c1ccc(/C=N/OCC(=O)NC2CCCCCCC2)cc1 | inconclusive: 216% | 
CCOc1ccc(NC(=O)Nc2cc(C)on2)cc1 |  | inconclusive: 10.3 µM [activator, partial curve]
Cc1ccc(Cl)cc1NC(=O)CNC(=O)N1CC(=O)Nc2ccccc21 | inactive | 
COc1ccc(C)cc1NC(=O)c1cnc2sccn2c1=O |  | inconclusive: 3.26 µM [activator, partial curve, poor fit]
Cc1cc(C)cc(NC(=O)CS(=O)(=O)c2cccc3nsnc23)c1 | inconclusive: 191% | 

Part of the list above in a different format.
CCOc1ccc(NC(=O)Nc2cc(C)on2)cc1
  Potency: inconclusive: 10.3 µM [activator, partial curve]
Cc1ccc(Cl)cc1NC(=O)CNC(=O)N1CC(=O)Nc2ccccc21
  lipid storage change, negative = inhibition: inactive
